Values of other authors, collected in US11590205B2, “Methods for producing stable therapeutic glucagon formulations in aprotic polar solvents” (Xeris Pharmaceuticals, Inc., priority 2015, dated 2023).

Settings: no formulation excipients, accelerated storage conditions (40° C., 75% RH)

Compound: CN1C(=O)CN=C(c2ccccc2)c2cc(Cl)ccc21 [diazepam]
- duration of stability in DMSO and NMP: at least 6 months
